Laboratory results as given in the supplement of paper PMC8728848.
Some of the results follow.

Legend:
Assay in all cases: glycan array binding signal (z-score within array); higher = stronger binding
Conditions in all cases: glycan notation: IUPAC condensed, linker removed
Glc(b1-6)Glc = target: Glc(b1-6)Glc
In short: (§1)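 From the Consortium for Functional Glycomics database, 3228 arrays were curated, keeping only those whose protein sequence was available. Binding is given as a within-array Z-score averaged across arrays sharing a protein sequence and across linkers. Negative Z-scores can be read as non-binding.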

GlcA(b1-3)Gal = target: GlcA(b1-3)Gal
In short: as §1

GlcA(b1-3)GlcNAc = target: GlcA(b1-3)GlcNAc
In short: as §1

GlcA(b1-6)Gal = target: GlcA(b1-6)Gal
In short: as §1

[1] = target: GlcA3S(b1-3)Gal(b1-4)GlcNAc(b1-2)Man
In short: as §1

[2] = target: GlcA3S(b1-3)Gal(b1-4)GlcNAc(b1-3)Gal(b1-4)Glc
In short: as §1

[3] = target: GlcNAc(a1-3)Gal(b1-4)GlcNAc
In short: as §1

[4] = target: GlcNAc(a1-4)Gal(b1-3)GlcNAc
In short: as §1

[5] = target: GlcNAc(a1-4)Gal(b1-4)GalNAc
In short: as §1

[6] = target: GlcNAc(a1-4)Gal(b1-4)GlcNAc
In short: as §1

[7] = target: GlcNAc(a1-4)Gal(b1-4)GlcNAc(b1-3)Gal(b1-4)Glc
In short: as §1

[8] = target: GlcNAc(a1-4)Gal(b1-4)GlcNAc(b1-3)Gal(b1-4)GlcNAc
In short: as §1

[9] = target: GlcNAc(a1-4)Gal(b1-4)GlcNAc(b1-3)Gal(b1-4)GlcNAc(b1-3)Gal(b1-4)GlcNAc
In short: as §1

[10] = target: GlcNAc(a1-4)Gal(b1-4)GlcNAc(b1-3)Gal(b1-4)[Fuc(a1-3)]GlcNAc(b1-3)Gal(b1-4)[Fuc(a1-3)]GlcNAc
In short: as §1

[11] = target: GlcNAc(a1-6)Gal(b1-4)GlcNAc
In short: as §1

[12] = target: GlcNAc(b1-2)Gal(b1-3)GalNAc
In short: as §1

[13] = target: GlcNAc(b1-2)Man(a1-3)[GlcNAc(b1-2)Man(a1-6)]Man(b1-4)GlcNAc(b1-4)GlcNAc
In short: as §1

[14] = target: GlcNAc(b1-2)Man(a1-3)[GlcNAc(b1-2)Man(a1-6)]Man(b1-4)GlcNAc(b1-4)[Fuc(a1-6)]GlcNAc
In short: as §1

[15] = target: GlcNAc(b1-2)Man(a1-3)[GlcNAc(b1-4)][GlcNAc(b1-2)Man(a1-6)]Man(b1-4)GlcNAc(b1-4)GlcNAc
In short: as §1

[16] = target: GlcNAc(b1-2)Man(a1-3)[GlcNAc(b1-4)][GlcNAc(b1-2)Man(a1-6)]Man(b1-4)GlcNAc(b1-4)[Fuc(a1-6)]GlcNAc
In short: as §1

[17] = target: GlcNAc(b1-2)[GlcNAc(b1-4)]Man(a1-3)[GlcNAc(b1-2)Man(a1-6)]Man(b1-4)GlcNAc(b1-4)GlcNAc
In short: as §1

[18] = target: GlcNAc(b1-2)[GlcNAc(b1-4)]Man(a1-3)[GlcNAc(b1-4)][GlcNAc(b1-2)Man(a1-6)]Man(b1-4)GlcNAc(b1-4)GlcNAc
In short: as §1

[19] = target: GlcNAc(b1-2)[GlcNAc(b1-4)]Man(a1-3)[GlcNAc(b1-4)][GlcNAc(b1-2)[GlcNAc(b1-6)]Man(a1-6)]Man(b1-4)GlcNAc(b1-4)GlcNAc
In short: as §1

[20] = target: GlcNAc(b1-2)[GlcNAc(b1-4)]Man(a1-3)[GlcNAc(b1-4)][GlcNAc(b1-2)[GlcNAc(b1-6)]Man(a1-6)]Man(b1-4)GlcNAc(b1-4)[Fuc(a1-6)]GlcNAc
In short: as §1

[21] = target: GlcNAc(b1-2)[GlcNAc(b1-6)]Man(a1-6)[GlcNAc(b1-2)Man(a1-3)]Man(b1-4)GlcNAc(b1-4)GlcNAc
In short: as §1

[22] = target: GlcNAc(b1-2)[GlcNAc(b1-6)]Man(a1-6)[GlcNAc(b1-2)Man(a1-3)]Man(b1-4)GlcNAc(b1-4)[Fuc(a1-6)]GlcNAc
In short: as §1

[23] = target: GlcNAc(b1-2)[GlcNAc(b1-6)]Man(a1-6)[GlcNAc(b1-4)][GlcNAc(b1-2)Man(a1-3)]Man(b1-4)GlcNAc(b1-4)GlcNAc
In short: as §1

GlcNAc(b1-3)Fuc = target: GlcNAc(b1-3)Fuc
In short: as §1

GlcNAc(b1-3)Gal = target: GlcNAc(b1-3)Gal
In short: as §1

[24] = target: GlcNAc(b1-3)Gal(b1-3)GalNAc
In short: as §1

GlcNAc(b1-3)Gal(b1-4)Glc = target: GlcNAc(b1-3)Gal(b1-4)Glc
In short: as §1

[25] = target: GlcNAc(b1-3)Gal(b1-4)GlcNAc
In short: as §1

[26] = target: GlcNAc(b1-3)Gal(b1-4)GlcNAc(b1-2)Man(a1-3)[GlcNAc(b1-3)Gal(b1-4)GlcNAc(b1-2)Man(a1-6)]Man(b1-4)GlcNAc(b1-4)GlcNAc
In short: as §1

[27] = target: GlcNAc(b1-3)Gal(b1-4)GlcNAc(b1-2)Man(a1-3)[GlcNAc(b1-3)Gal(b1-4)GlcNAc(b1-2)Man(a1-6)]Man(b1-4)GlcNAc(b1-4)[Fuc(a1-6)]GlcNAc
In short: as §1

[28] = target: GlcNAc(b1-3)Gal(b1-4)GlcNAc(b1-2)[GlcNAc(b1-3)Gal(b1-4)GlcNAc(b1-6)]Man(a1-6)[GlcNAc(b1-3)Gal(b1-4)GlcNAc(b1-2)Man(a1-3)]Man(b1-4)GlcNAc(b1-4)GlcNAc
In short: as §1

[29] = target: GlcNAc(b1-3)Gal(b1-4)GlcNAc(b1-3)Gal(b1-4)GlcNAc
In short: as §1

[30] = target: GlcNAc(b1-3)Gal(b1-4)GlcNAc(b1-3)Gal(b1-4)GlcNAc(b1-2)Man(a1-3)[GlcNAc(b1-3)Gal(b1-4)GlcNAc(b1-3)Gal(b1-4)GlcNAc(b1-2)Man(a1-6)]Man(b1-4)GlcNAc(b1-4)GlcNAc
In short: as §1

[31] = target: GlcNAc(b1-3)Gal(b1-4)GlcNAc(b1-3)Gal(b1-4)GlcNAc(b1-2)Man(a1-3)[GlcNAc(b1-3)Gal(b1-4)GlcNAc(b1-3)Gal(b1-4)GlcNAc(b1-2)Man(a1-6)]Man(b1-4)GlcNAc(b1-4)[Fuc(a1-6)]GlcNAc
In short: as §1

[32] = target: GlcNAc(b1-3)Gal(b1-4)GlcNAc(b1-3)Gal(b1-4)GlcNAc(b1-2)[GlcNAc(b1-3)Gal(b1-4)GlcNAc(b1-3)Gal(b1-4)GlcNAc(b1-6)]Man(a1-6)[GlcNAc(b1-3)Gal(b1-4)GlcNAc(b1-3)Gal(b1-4)GlcNAc(b1-2)Man(a1-3)]Man(b1-4)GlcNAc(b1-4)[Fuc(a1-6)]GlcNAc
In short: as §1

[33] = target: GlcNAc(b1-3)Gal(b1-4)GlcNAc(b1-3)Gal(b1-4)GlcNAc(b1-3)Gal(b1-4)GlcNAc(b1-2)Man(a1-3)[GlcNAc(b1-3)Gal(b1-4)GlcNAc(b1-3)Gal(b1-4)GlcNAc(b1-3)Gal(b1-4)GlcNAc(b1-2)Man(a1-6)]Man(b1-4)GlcNAc(b1-4)GlcNAc
In short: as §1

[34] = target: GlcNAc(b1-3)Gal(b1-4)GlcNAc(b1-3)Gal(b1-4)GlcNAc(b1-3)Gal(b1-4)GlcNAc(b1-2)Man(a1-3)[GlcNAc(b1-3)Gal(b1-4)GlcNAc(b1-3)Gal(b1-4)GlcNAc(b1-3)Gal(b1-4)GlcNAc(b1-2)Man(a1-6)]Man(b1-4)GlcNAc(b1-4)[Fuc(a1-6)]GlcNAc
In short: as §1

[35] = target: GlcNAc(b1-3)Gal(b1-4)GlcNAc(b1-3)Gal(b1-4)GlcNAc(b1-3)Gal(b1-4)GlcNAc(b1-2)[GlcNAc(b1-3)Gal(b1-4)GlcNAc(b1-3)Gal(b1-4)GlcNAc(b1-3)Gal(b1-4)GlcNAc(b1-6)]Man(a1-6)[GlcNAc(b1-3)Gal(b1-4)GlcNAc(b1-3)Gal(b1-4)GlcNAc(b1-3)Gal(b1-4)GlcNAc(b1-2)Man(a1-3)]Man(b1-4)GlcNAc(b1-4)[Fuc(a1-6)]GlcNAc
In short: as §1

[36] = target: GlcNAc(b1-3)Gal(b1-4)GlcNAc(b1-3)Gal(b1-4)GlcNAc(b1-3)Gal(b1-4)GlcNAc(b1-3)Gal(b1-4)GlcNAc(b1-2)Man(a1-3)[GlcNAc(b1-3)Gal(b1-4)GlcNAc(b1-3)Gal(b1-4)GlcNAc(b1-3)Gal(b1-4)GlcNAc(b1-3)Gal(b1-4)GlcNAc(b1-2)Man(a1-6)]Man(b1-4)GlcNAc(b1-4)GlcNAc
In short: as §1

[37] = target: GlcNAc(b1-3)Gal(b1-4)GlcNAc(b1-3)Gal(b1-4)GlcNAc(b1-3)Gal(b1-4)GlcNAc(b1-3)Gal(b1-4)GlcNAc(b1-2)Man(a1-3)[GlcNAc(b1-3)Gal(b1-4)GlcNAc(b1-3)Gal(b1-4)GlcNAc(b1-3)Gal(b1-4)GlcNAc(b1-3)Gal(b1-4)GlcNAc(b1-2)Man(a1-6)]Man(b1-4)GlcNAc(b1-4)[Fuc(a1-6)]GlcNAc
In short: as §1

[38] = target: GlcNAc(b1-3)Gal(b1-4)GlcNAc(b1-3)Gal(b1-4)GlcNAc(b1-3)Gal(b1-4)GlcNAc(b1-3)Gal(b1-4)GlcNAc(b1-2)[GlcNAc(b1-3)Gal(b1-4)GlcNAc(b1-3)Gal(b1-4)GlcNAc(b1-3)Gal(b1-4)GlcNAc(b1-3)Gal(b1-4)GlcNAc(b1-6)]Man(a1-6)[GlcNAc(b1-3)Gal(b1-4)GlcNAc(b1-3)Gal(b1-4)GlcNAc(b1-3)Gal(b1-4)GlcNAc(b1-3)Gal(b1-4)GlcNAc(b1-2)Man(a1-3)]Man(b1-4)GlcNAc(b1-4)[Fuc(a1-6)]GlcNAc
In short: as §1

B1: Pwp6 (Candida glabrata) (protein)
chain: MGSSHHHHHHSSGLVPRGSHMASANLPKLTNICQIPDNVKKTSGFKGEIRRIGLFPPGGDYTYLLKFPSTGSTASDTISLTTKPQLSTSGWFPSLFGHTYFIKADLLVYMVAYFVPTETGEYTFKLVNSDDAAVMYVGNPSAFPCGSIDTWPEPRKEDINVCDKISASTKLYMEKGLAYPVRLVWYNGGGDGQFNAQFIDPSGTTHTDWNGYVWQYDACTDCDYK
glycan array binding signal (z-score) (Glc(b1-6)Glc): -0.526
glycan array binding signal (z-score) (GlcA(b1-3)Gal): -0.631
glycan array binding signal (z-score) (GlcA(b1-3)GlcNAc): -0.597
glycan array binding signal (z-score) (GlcA(b1-6)Gal): -0.367
glycan array binding signal (z-score) [1]: 0.513
glycan array binding signal (z-score) [2]: -0.195
glycan array binding signal (z-score) [3]: -0.801
glycan array binding signal (z-score) [4]: -0.602
glycan array binding signal (z-score) [5]: -0.433
glycan array binding signal (z-score) [6]: -0.722
glycan array binding signal (z-score) [7]: -0.156
glycan array binding signal (z-score) [8]: 0.544
glycan array binding signal (z-score) [9]: -0.388
glycan array binding signal (z-score) [10]: 0.097
glycan array binding signal (z-score) [11]: -0.818
glycan array binding signal (z-score) [12]: -0.927
glycan array binding signal (z-score) [13]: 0.052
glycan array binding signal (z-score) [14]: -0.408
glycan array binding signal (z-score) [15]: 0
glycan array binding signal (z-score) [16]: -0.5
glycan array binding signal (z-score) [17]: -0.06
glycan array binding signal (z-score) [18]: -0.458
glycan array binding signal (z-score) [19]: -0.34
glycan array binding signal (z-score) [20]: -0.356
glycan array binding signal (z-score) [21]: 0.028
glycan array binding signal (z-score) [22]: 0.023
glycan array binding signal (z-score) [23]: -0.439
glycan array binding signal (z-score) (GlcNAc(b1-3)Fuc): -0.673
glycan array binding signal (z-score) (GlcNAc(b1-3)Gal): -0.618
glycan array binding signal (z-score) [24]: 0.058
glycan array binding signal (z-score) (GlcNAc(b1-3)Gal(b1-4)Glc): -0.721
glycan array binding signal (z-score) [25]: -0.696
glycan array binding signal (z-score) [26]: 2.27
glycan array binding signal (z-score) [27]: 0.785
glycan array binding signal (z-score) [28]: 2.94
glycan array binding signal (z-score) [29]: -0.261
glycan array binding signal (z-score) [30]: 3.63
glycan array binding signal (z-score) [31]: 1.15
glycan array binding signal (z-score) [32]: 3.3
glycan array binding signal (z-score) [33]: 1.43
glycan array binding signal (z-score) [34]: 3.79
glycan array binding signal (z-score) [35]: 3.71
glycan array binding signal (z-score) [36]: 2.69
glycan array binding signal (z-score) [37]: 1.85
glycan array binding signal (z-score) [38]: 2.5
